# Test results taken from the supplement of paper PMC4604168 (melanoma cell lines).
# The list shows a part of the results. Many values rest on one well or one pass, so single values are uncertain.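 The apoptosis fraction was the count of cleaved-PARP antibody-stained nuclei relative to all DNA-stained nuclei, imaged in 1,536-well plates. Screening doses were set so most cells survived, and baseline and induced cleaved-PARP levels vary greatly across cell lines.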
# Legend:
# Assay in all cases: cleaved PARP positive nuclei fraction relative to DMSO control; melanoma cells; higher = more apoptosis
# Conditions in all cases: library dose: low library concentration; 72 h
# COLO792 = system: COLO792
# COLO800 = system: COLO800
# COLO829 = system: COLO829
# G361 = system: G361
# IPC-298 = system: IPC-298
# IST-MEL1 = system: IST-MEL1
# LB2518-MEL = system: LB2518-MEL
# LOXIMVI = system: LOXIMVI
# MEL-HO = system: MEL-HO
Compound,cleaved PARP positive nuclei fraction (COLO792) [%],cleaved PARP positive nuclei fraction (COLO800) [%],cleaved PARP positive nuclei fraction (COLO829) [%],cleaved PARP positive nuclei fraction (G361) [%],cleaved PARP positive nuclei fraction (IPC-298) [%],cleaved PARP positive nuclei fraction (IST-MEL1) [%],cleaved PARP positive nuclei fraction (LB2518-MEL) [%],cleaved PARP positive nuclei fraction (LOXIMVI) [%],cleaved PARP positive nuclei fraction (MEL-HO) [%]
"CC1(C)CCC(c2ccc(Cl)cc2)=C(CN2CCN(c3ccc(C(=O)NS(=O)(=O)c4ccc(N[C@H](CCN5CCOCC5)CSc5ccccc5)c(S(=O)(=O)C(F)(F)F)c4)cc3)CC2)C1 + C=CCn1c(=O)c2cnc(Nc3ccc(N4CCN(C)CC4)cc3)nc2n1-c1cccc(C(C)(C)O)n1 [MK1775] (first compound 0.4 µM, partner dose 0.02 µM)",261,45.5,174,310,94,253,50.4,39.8,194
"CN(c1ncccc1CNc1nc(Nc2ccc3c(c2)CC(=O)N3)ncc1C(F)(F)F)S(C)(=O)=O + Cn1cncc1[C@@](N)(c1ccc(Cl)cc1)c1ccc2c(c1)c(-c1cccc(Cl)c1)cc(=O)n2C [tipifarnib] (first compound 0.08 µM, partner dose 0.01 µM)",151,65.3,123,36.2,51.8,221,88.6,115,72.4
"CCN(CC)CCNC(=O)c1c(C)[nH]c(/C=C2\C(=O)Nc3ccc(F)cc32)c1C [sunitinib] + CN(C)S(=O)(=O)c1ccc2c(c1)/C(=C/c1cc3c([nH]1)CCCC3)C(=O)N2 [SU6656] (first compound 0.4 µM, partner dose 0.4 µM)",242,176,68.7,93.5,46.7,88.7,97.9,25.2,79.4
"CS(=O)(=O)c1ccc(C(=O)Nc2ccc(Cl)c(-c3ccccn3)c2)c(Cl)c1 [vismodegib] + Cc1cc(N2CCOCC2)cc2[nH]c(-c3c(NC[C@@H](O)c4cccc(Cl)c4)cc[nH]c3=O)nc12 [BMS536924] (first compound 1 µM, partner dose 0.2 µM)",109,216,33.7,120,25.5,268,220,139,75.5
"CN(c1ncccc1CNc1nc(Nc2ccc3c(c2)CC(=O)N3)ncc1C(F)(F)F)S(C)(=O)=O + CC(C)(C)c1cnc(CSc2cnc(NC(=O)C3CCNCC3)s2)o1 [SNS-032] (first compound 0.08 µM, partner dose 0.01 µM)",135,103,303,119,68.5,145,111,52.5,42.7
"Cn1sc(=O)n(Cc2ccccc2)c1=O + COc1cc(Nc2ncc(F)c(Nc3ccc4c(n3)NC(=O)C(C)(C)O4)n2)cc(OC)c1OC [Tamatinib] (first compound 0.4 µM, partner dose 0.4 µM)",274,124,89.8,119,235,188,375,62.7,107
"Cn1sc(=O)n(Cc2ccccc2)c1=O + O=C(Nc1cccc(Cl)c1)Nc1ncc(CCNc2ncnc3ccsc23)s1 [SNS314] (first compound 0.4 µM, partner dose 0.0008 µM)",130,60.8,155,136,42,182,143,44.1,148
"COc1ccc(C2=N[C@@H](c3ccc(Cl)cc3)[C@@H](c3ccc(Cl)cc3)N2C(=O)N2CCNC(=O)C2)c(OC(C)C)c1 [Nutlin-3] + CN(C)S(=O)(=O)c1ccc2c(c1)/C(=C/c1cc3c([nH]1)CCCC3)C(=O)N2 [SU6656] (first compound 0.1 µM, partner dose 0.4 µM)",30.6,71.7,119,88.9,46.8,89.9,115,43.3,407
"CCCCCCCCc1ccc(CCC(N)(CO)CO)cc1 [fingolimod] + COc1cc(Nc2ncc(F)c(Nc3ccc4c(n3)NC(=O)C(C)(C)O4)n2)cc(OC)c1OC [Tamatinib] (first compound 2 µM, partner dose 0.4 µM)",192,146,117,38.3,36.6,202,50.9,21.7,173
"Cn1sc(=O)n(Cc2ccccc2)c1=O + Cc1cc(N2CCOCC2)cc2[nH]c(-c3c(NC[C@@H](O)c4cccc(Cl)c4)cc[nH]c3=O)nc12 [BMS536924] (first compound 0.4 µM, partner dose 0.2 µM)",179,199,165,205,47.2,115,95.7,61.5,34.2
"NC(=O)c1ccc(N(C(N)=O)c2c(F)cccc2F)nc1-c1ccc(F)cc1F + O=C(Nc1cccc(Cl)c1)Nc1ncc(CCNc2ncnc3ccsc23)s1 [SNS314] (first compound 0.4 µM, partner dose 0.0008 µM)",67.2,101,120,126,62.6,98.1,48.3,74.7,46.9
"CC1(C)CCC(c2ccc(Cl)cc2)=C(CN2CCN(c3ccc(C(=O)NS(=O)(=O)c4ccc(N[C@H](CCN5CCOCC5)CSc5ccccc5)c(S(=O)(=O)C(F)(F)F)c4)cc3)CC2)C1 + Cc1ccc(NC(=O)c2cccc(N(C)C)c2)cc1NC(=O)c1ccc(O)cc1 [ZM336372] (first compound 0.4 µM, partner dose 2 µM)",173,257,52.3,193,117,107,159,200,61.9
"NC(=O)c1ccc(N(C(N)=O)c2c(F)cccc2F)nc1-c1ccc(F)cc1F + CO[C@@H]1[C@H](N(C)C(=O)c2ccccc2)C[C@H]2O[C@]1(C)n1c3ccccc3c3c4c(c5c6ccccc6n2c5c31)C(=O)NC4 [Midostaurin] (first compound 0.4 µM, partner dose 0.08 µM)",44.8,248,124,156,64.1,102,85.7,89.9,215
"NC(=O)c1ccc(N(C(N)=O)c2c(F)cccc2F)nc1-c1ccc(F)cc1F + CC(C)(C)c1cnc(CSc2cnc(NC(=O)C3CCNCC3)s2)o1 [SNS-032] (first compound 0.4 µM, partner dose 0.01 µM)",120,204,97.1,68.9,89.1,92.8,259,343,30.1
"C[C@]1(O)C[C@@H](c2nc(-c3ccc4ccc(-c5ccccc5)nc4c3)c3c(N)nccn32)C1 + OCCn1cc(-c2cnc3nnn(Cc4ccc5ncccc5c4)c3n2)cn1 [PF04217903] (first compound 0.4 µM, partner dose 1 µM)",188,85.1,115,103,48.9,101,104,53.5,103
"Cn1sc(=O)n(Cc2ccccc2)c1=O + C[C@@H]1CCN(C(=O)CC#N)C[C@@H]1N(C)c1ncnc2[nH]ccc12 [CP690550] (first compound 0.4 µM, partner dose 1 µM)",131,45.7,146,131,120,97.8,143,74.1,59.4
"CS(=O)(=O)c1ccc(C(=O)Nc2ccc(Cl)c(-c3ccccn3)c2)c(Cl)c1 [vismodegib] + O=C(CCCCCCC(=O)Nc1ccccc1)NO [vorinostat] (first compound 1 µM, partner dose 0.08 µM)",100,27.6,84.5,81.6,47,49.8,46.5,42.7,86.6
"CS(=O)(=O)c1ccc(C(=O)Nc2ccc(Cl)c(-c3ccccn3)c2)c(Cl)c1 [vismodegib] + COc1cc(Nc2ncc(F)c(Nc3ccc4c(n3)NC(=O)C(C)(C)O4)n2)cc(OC)c1OC [Tamatinib] (first compound 1 µM, partner dose 0.4 µM)",39,117,103,120,106,138,107,100,35.2
"CC1(C)CCC(c2ccc(Cl)cc2)=C(CN2CCN(c3ccc(C(=O)NS(=O)(=O)c4ccc(N[C@H](CCN5CCOCC5)CSc5ccccc5)c(S(=O)(=O)C(F)(F)F)c4)cc3)CC2)C1 + COc1cc2c(Oc3ccc4[nH]c(C)cc4c3F)ncnc2cc1OCCCN1CCCC1 [cediranib] (first compound 0.4 µM, partner dose 0.4 µM)",687,116,110,109,65.6,68.2,106,111,93
"NC1(c2ccc(-c3nc4ccn5c(=O)[nH]nc5c4cc3-c3ccccc3)cc2)CCC1 + C[C@@H]1CCN(C(=O)CC#N)C[C@@H]1N(C)c1ncnc2[nH]ccc12 [CP690550] (first compound 0.4 µM, partner dose 1 µM)",222,18.6,157,64.6,148,113,50.8,38.9,98.7
"C[C@@H](N)c1ccc(C(=O)Nc2ccnc3[nH]ccc23)cc1 + Cn1cncc1[C@@](N)(c1ccc(Cl)cc1)c1ccc2c(c1)c(-c1cccc(Cl)c1)cc(=O)n2C [tipifarnib] (first compound 0.4 µM, partner dose 0.01 µM)",142,102,74.8,158,21.3,96.6,52.6,89.9,101
"CN(c1ncccc1CNc1nc(Nc2ccc3c(c2)CC(=O)N3)ncc1C(F)(F)F)S(C)(=O)=O + Cc1cc(N2CCOCC2)cc2[nH]c(-c3c(NC[C@@H](O)c4cccc(Cl)c4)cc[nH]c3=O)nc12 [BMS536924] (first compound 0.08 µM, partner dose 0.2 µM)",107,142,118,117,93.1,163,87.7,139,212
"CC1(C)CCC(c2ccc(Cl)cc2)=C(CN2CCN(c3ccc(C(=O)NS(=O)(=O)c4ccc(N[C@H](CCN5CCOCC5)CSc5ccccc5)c(S(=O)(=O)C(F)(F)F)c4)cc3)CC2)C1 + C[C@@H]1CCN(C(=O)CC#N)C[C@@H]1N(C)c1ncnc2[nH]ccc12 [CP690550] (first compound 0.4 µM, partner dose 1 µM)",300,266,145,130,50.3,384,101,156,84.8

# Single records, from the list above. Order of values: cleaved PARP positive nuclei fraction (COLO792) [%] | cleaved PARP positive nuclei fraction (COLO800) [%] | cleaved PARP positive nuclei fraction (COLO829) [%] | cleaved PARP positive nuclei fraction (G361) [%] | cleaved PARP positive nuclei fraction (IPC-298) [%] | cleaved PARP positive nuclei fraction (IST-MEL1) [%] | cleaved PARP positive nuclei fraction (LB2518-MEL) [%] | cleaved PARP positive nuclei fraction (LOXIMVI) [%] | cleaved PARP positive nuclei fraction (MEL-HO) [%]
# CC1(C)CCC(c2ccc(Cl)cc2)=C(CN2CCN(c3ccc(C(=O)NS(=O)(=O)c4ccc(N[C@H](CCN5CCOCC5)CSc5ccccc5)c(S(=O)(=O)C(F)(F)F)c4)cc3)CC2)C1 + Cc1ccc(NC(=O)c2cccc(N(C)C)c2)cc1NC(=O)c1ccc(O)cc1 [ZM336372] (first compound 0.4 µM, partner dose 2 µM) as listed: 173 | 257 | 52.3 | 193 | 117 | 107 | 159 | 200 | 61.9
# CC1(C)CCC(c2ccc(Cl)cc2)=C(CN2CCN(c3ccc(C(=O)NS(=O)(=O)c4ccc(N[C@H](CCN5CCOCC5)CSc5ccccc5)c(S(=O)(=O)C(F)(F)F)c4)cc3)CC2)C1 + COc1cc2c(Oc3ccc4[nH]c(C)cc4c3F)ncnc2cc1OCCCN1CCCC1 [cediranib] (first compound 0.4 µM, partner dose 0.4 µM) as listed: 687 | 116 | 110 | 109 | 65.6 | 68.2 | 106 | 111 | 93
